From publication PMC9958909, “Insight into the Structural Basis for Dual Nucleic Acid—Recognition by the Scaffold Attachment Factor B2 Protein”
Results are given in words; binding and its absence hold for the method and conditions named.

Sequences of proteins named here, by UniProt entry; tags and fusion partners are left off. A change or cut given only in a name is not applied to a line headed by its entry. A line that says so, or that is headed by a name, gives the form on record, which may keep a tag or linker.
SAFB2 RRM domain (404-485) (Q14151, form named): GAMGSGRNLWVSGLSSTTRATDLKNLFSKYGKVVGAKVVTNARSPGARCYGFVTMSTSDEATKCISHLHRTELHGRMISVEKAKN

Target: SAFB2 RRM domain (404-485) (human) (UniProt Q14151)
Experiment: NMR 15N relaxation (total correlation time); RRM alone; T1 and T2 at 600 MHz, 298 K; 20 mM BisTris, 150 mM NaCl, 2 mM TCEP, pH 6.5; both purified

binding: no binding
Substance: SAFB2 RRM domain (404-485) (from UniProt Q14151 404-485) (domain or fragment)
